# From PubChem BioAssay AID1963319 (National Center for Advancing Translational Sciences (NCATS), 2024)
# By UniProt entry, the sequences of proteins in these tests, tags left out.
# UniProt P08659, whole entry, looked up: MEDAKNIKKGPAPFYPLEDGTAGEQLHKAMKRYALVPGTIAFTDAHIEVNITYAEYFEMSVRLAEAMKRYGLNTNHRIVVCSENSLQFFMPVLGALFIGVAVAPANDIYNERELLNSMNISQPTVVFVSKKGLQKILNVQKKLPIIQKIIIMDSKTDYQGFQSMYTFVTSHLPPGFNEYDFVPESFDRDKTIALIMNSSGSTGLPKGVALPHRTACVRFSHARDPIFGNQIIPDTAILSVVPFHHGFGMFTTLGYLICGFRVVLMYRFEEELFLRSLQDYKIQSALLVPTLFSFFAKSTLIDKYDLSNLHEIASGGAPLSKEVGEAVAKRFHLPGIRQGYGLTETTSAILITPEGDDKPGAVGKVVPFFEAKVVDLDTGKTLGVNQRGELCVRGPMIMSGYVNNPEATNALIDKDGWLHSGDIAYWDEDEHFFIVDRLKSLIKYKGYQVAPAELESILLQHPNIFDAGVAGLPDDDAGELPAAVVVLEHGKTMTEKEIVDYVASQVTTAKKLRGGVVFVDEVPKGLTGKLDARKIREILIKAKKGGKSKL
# Screen size: about 1,300 compounds; about 120 (9.2%) were called active. About 35% were inconclusive and are not listed. The call rests on the fitted dose curve; in most records, active means well fitted activation curve with a large enough effect; inconclusive means small, poorly fitted or top-dose-only effect; inactive means flat fitted curve, though single readings scatter. This is a selection; strong and weak results do not stand in their true shares.
# Biological target: Luciferin 4-monooxygenase (Photinus pyralis) (UniProt P08659)
# Assay: Firefly luciferase (FLuc-C-HiBiT) SDR gain of signal screen - plus ATP;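 further: signal reports ligand binding via conformational change of the enzyme rather than luciferase catalysis; % of control where 0% means no effect; nearly all actives have a fitted effect of over 55% in size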
# Settings: purified FLuc-C-HiBiT + ATP, HiBiT complementation luminescence; at 49.3 µM (top of the series)
# Source text: PI: James Inglese Ph.D. National Center for Advancing Translational Sciences (NCATS), National Institute of Health (NIH), Maryland Discovery and optimization of novel protein-binding ligands underlies many of the methods and applications of biology, drug discovery, clinical diagnostics, and environmental toxicology. Assays for detecting the interaction of, for example, a molecule with a macromolecular target also referred to here as the target of interest (TOI) is dependent on a compatible output technology. Depending on the nature and knowledge surrounding the TOI, whether a receptor, enzyme, regulatory subunit or scaffold, or a sequence-defined nucleic acid folded into a complex tertiary structure, assay strategies can vary widely. Here we exploit ligand-biased changes in the structural dynamics of the target protein to control reporter alpha complementation allowing a non-competitive, non-functional, non-separation measure of ligand-target interaction. […]
# 1. […] HiBiT SDR assay measured using CCD-based camera (ViewLux) with settings as follows: Exposure, 1 sec; Gain, High; Speed, Slow; Binning, 2X. […]
row,Compound,activation (gain of signal)
1,CN1CCNc2cc(-c3ccc([S+](C)(=O)[O-])cc3)ncc2C1,inactive: 13.9%
